Test results from PMC5636791, “Non-canonical reader modules of BAZ1A promote recovery from DNA damage”.
Changes are numbered by the printed parent chain. Weaker means in comparison with the reference protein, sequence or condition of that experiment. Tags and fusion partners may be left off the protein sequences shown. For some assays here: The exact form of at least one protein or probe is not confirmed. For some assays here: At least one verdict was read from the data and is not stated in words by the source.

Assays:
[1] = biological target: T1, BAZ1A-PHD K1181A (human) (UniProt Q9NRL2); assay: BLI; conditions: BLI: 50 mM Tris pH 7.5, 150 mM NaCl, 1 mM TCEP, 0.5% BSA, 0.01% Tween-20, 23 C; recombinant protein; residues 1137-1202; protein details: His6-FLAG N-terminal, removed for BLI; label: 5' biotin
T1 sequence (looked up): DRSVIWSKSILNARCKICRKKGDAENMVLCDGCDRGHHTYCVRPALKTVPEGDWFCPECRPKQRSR

[2] = biological target: T2, BAZ1A-PHD K1181A/K1183Y (KAKY) (human) (UniProt Q9NRL2); assay: fluorescence polarization; conditions: binding stated to depend on K1181 and K1183; FP: 20 mM Tris pH 7.5, 150 mM NaCl, 1% glycerol, 0.5 mg/mL BSA, 0.05% Triton X-100, RT, 50 nM probe; recombinant protein; residues 1137-1202; protein details: His6-FLAG N-terminal, removed for BLI; label: 5' fluorescein
T2 sequence (looked up): T1 sequence (looked up) with K47Y

Row | Sequence | binding result [1] | binding result [2]
1 | CTTGCATCGATCCGATTGAACCATCGCTCGGTGACAGCTACGTGACTTAGTGTGCCCCATCGATCCAGTTCGATCACAGGCCACCTGAGTCGAGAGTATCGACACCCAGTGAACGATCGATCCGACTCGATCGCCTCACTGCTAG (double strand) [scrambled Widom-601 145 bp duplex] | binds more weakly | –
2 | ATCAGAATCCCGGTGCCGAGGCCGCTCAATTGGTCGTAGACAGCTCTAGCACCGCTTAAACGCACGTACGCGCTGTCCCCCGCGTTTTAACCGCCAAGGGGATTACTCCCTAGTCTCCAGGCACGTGTCAGATATATACATCGAT (double strand) [Widom-601 145 bp duplex, fluorescein] | – | binds more weakly
